Results deposited as PubChem BioAssay AID1259405 (NCATS, 2018)
Test: 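Silenced genes that increase secreted GFP made by CHO cells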 (primary screen). Cell system: Chinese hamster CHO-K1 ovary cells with stable secreted eGFP expression. Reagents: single siRNA against mouse genes, 0.8 pmol siRNA per well (2 µl of 400 nM stock). Time to read-out: 3 days. Measurement: 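Per-well intracellular GFP measured by laser scanning cytometry, plus viability from ATP luminescence, each relative to plate median of non-targeting control wells, in %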. Direction: GFP, % of control: higher = more GFP per well, higher productivity; viability (ATP), % of control: higher = more viable cells (more ATP). Rule for the call: 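a knock-down is called active if GFP reaches 120% or more of non-targeting control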.
The deposit covers about 50,000 reagents; below is an unselected part. About 4,000 of them (8%) count as active. 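Mouse siRNA library applied to hamster cells; one well for each siRNA.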 A number with no mark means an inactive call. Reagents against one gene are numbered here.

The first 2 entries, ahead of the listing:
Gramd1c #1 | GFP, % of control = 83.1; viability (ATP), % of control = 80.8
Gramd1c #2 | GFP, % of control = 51.2; viability (ATP), % of control = 72.6

Results, from the start:
Gramd1c #1 | GFP, % of control = 83.1; viability (ATP), % of control = 80.8
Gramd1c #2 | GFP, % of control = 51.2; viability (ATP), % of control = 72.6
Gramd1c #3 | GFP, % of control = 109; viability (ATP), % of control = 109
Kdm5c #1 | GFP, % of control = 80.4; viability (ATP), % of control = 103
Kdm5c #2 | GFP, % of control = 92.1; viability (ATP), % of control = 74.8
Kdm5c #3 | GFP, % of control = 114; viability (ATP), % of control = 76.1
Vps53 #1 | GFP, % of control = 39; viability (ATP), % of control = 54.7
Vps53 #2 | GFP, % of control = 95.8; viability (ATP), % of control = 53.8
Vps53 #3 | GFP, % of control = 71.2; viability (ATP), % of control = 69.1
Hrg #1 | GFP, % of control = 44.7; viability (ATP), % of control = 68.2
Hrg #2 | GFP, % of control = 87.3; viability (ATP), % of control = 61.7
Hrg #3 | GFP, % of control = 108; viability (ATP), % of control = 117
Cd163 #1 | GFP, % of control = 96.7; viability (ATP), % of control = 84.5
Cd163 #2 | GFP, % of control = 92.6; viability (ATP), % of control = 70.4
Cd163 #3 | GFP, % of control = 127 (active); viability (ATP), % of control = 92.9
Kcnn1 #1 | GFP, % of control = 92.3; viability (ATP), % of control = 80.7
Kcnn1 #2 | GFP, % of control = 66.1; viability (ATP), % of control = 62.4
Kcnn1 #3 | GFP, % of control = 74.2; viability (ATP), % of control = 39.7
Trp63 #1 | GFP, % of control = 75.3; viability (ATP), % of control = 108
Trp63 #2 | GFP, % of control = 68.4; viability (ATP), % of control = 55.1
Trp63 #3 | GFP, % of control = 77.8; viability (ATP), % of control = 122
Ern1 | GFP, % of control = 75.1; viability (ATP), % of control = 57.6
Nol10 #1 | GFP, % of control = 63; viability (ATP), % of control = 54.6
Nol10 #2 | GFP, % of control = 61.7; viability (ATP), % of control = 77.1
Nol10 #3 | GFP, % of control = 71.5; viability (ATP), % of control = 84
Zfp763 #1 | GFP, % of control = 44.3; viability (ATP), % of control = 54.3
Zfp763 #2 | GFP, % of control = 70.9; viability (ATP), % of control = 66.9
Zfp763 #3 | GFP, % of control = 86; viability (ATP), % of control = 78.4
